# In paper PMC7819943, “Rice protein-binding microarrays: a tool to detect cis-acting elements near promoter regions in rice”:
# The chains behind the UniProt entries cited, without tags or fusion partners.
# UniProt Q0JBA9, entry or part of it: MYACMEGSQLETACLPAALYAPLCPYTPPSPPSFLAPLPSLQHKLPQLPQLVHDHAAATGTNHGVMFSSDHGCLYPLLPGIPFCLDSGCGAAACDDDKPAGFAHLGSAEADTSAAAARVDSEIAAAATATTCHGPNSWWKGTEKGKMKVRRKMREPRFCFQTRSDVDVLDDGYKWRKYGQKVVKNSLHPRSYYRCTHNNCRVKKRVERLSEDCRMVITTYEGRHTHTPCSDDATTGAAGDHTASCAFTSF
# This is one part of the list.
# Biological target: OsWRKY34 (Oryza sativa, UniProt Q0JBA9 1-250)
# Test: protein-binding microarray (RPBM); PBS, 2% BSA, 51.3 ng/ul salmon testes DNA, 50 uM zinc acetate, 200 nM TF, 25 C, 1 h; high values mean tight binding
# Settings: protein: recombinant; tags: N-terminal polyhistidine and DsRed monomer fusion (pET32a); label: CyDye5-dUTP incorporated in the synthesized complementary strand; 3' TTTTT single-stranded linker to array surface; dsDNA, one strand shown
# How it was run: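 Binding signal is defined as the fluorescence intensity of each feature in arbitrary units, read on an Axon 4000B scanner. Transcription factors with N-terminal polyhistidine and DsRed fusions came from E. coli BL21-CodonPlus and were purified on Ni–NTA. They were incubated at 200 nM for 1 h at 25 °C on a custom Agilent array that had been made double-stranded with Cy5-dUTP, with 50 µM zinc acetate present, and the array was washed.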
row,Sequence,binding signal
1,GCCTCCAAAACTCCACCCACCCACCCACACCGTCGCCATGCGGAGTCACCTAGTGCAG,9340 fluorescence intensity (a.u.)
2,TAGATGAAAATCTGGGATCCAAACTGGTGTTCATGTATGTCGGAGTCACCTAGTGCAG,8700 fluorescence intensity (a.u.)
3,ACACCACACCACCACCACCACCACCCACCCCTCGTATGCACGGAGTCACCTAGTGCAG,9660 fluorescence intensity (a.u.)
4,ATTACACTCCTATACTACACTACGGCCCTTTTGTTTAAGCCGGAGTCACCTAGTGCAG,8990 fluorescence intensity (a.u.)
5,CAACACATATCACATTCTTTCAATAAAACATAGGCCATATCGGAGTCACCTAGTGCAG,8580 fluorescence intensity (a.u.)
6,AGCGCGTCGCTTTCTTTCTTTCTTTCAGTTTTTTTTTTCCCGGAGTCACCTAGTGCAG,10500 fluorescence intensity (a.u.)
7,GTCTCCTCGATTCCGATCCGGCGCCGGCGGCCATGGCCGACGGAGTCACCTAGTGCAG,8680 fluorescence intensity (a.u.)
8,GCTACCTACTCCCACTTTCTGAGAGAATACCTGTTGATAACGGAGTCACCTAGTGCAG,8900 fluorescence intensity (a.u.)
9,GCCATCTCGCCTAAATAAAACCGCGCTACCCATCGACCGACGGAGTCACCTAGTGCAG,9280 fluorescence intensity (a.u.)
10,CTTCAAGGCTCCAGTCCAGCTGCTCGCTCCCACCACCCTTCGGAGTCACCTAGTGCAG,8120 fluorescence intensity (a.u.)
11,TTGTATGGAAATTTTAAGTTATGTTTTGTTAGGTGTGTTTCGGAGTCACCTAGTGCAG,8340 fluorescence intensity (a.u.)
12,AAATCGTATATCCTACTTATTCTCACACCAAAACACATCCCGGAGTCACCTAGTGCAG,8410 fluorescence intensity (a.u.)
13,CTCCTCTTCGAGTCGTCCGCTTCCACTCACGCCGGCTCATCGGAGTCACCTAGTGCAG,9820 fluorescence intensity (a.u.)
14,ACCCTACCCTACGCCCGGATAAAATCTCGTACACATCCCGCGGAGTCACCTAGTGCAG,9210 fluorescence intensity (a.u.)
15,TTCACGATTGTCCCGTCGTAATTTTACACAATCCATTTTTCGGAGTCACCTAGTGCAG,12000 fluorescence intensity (a.u.)
16,ATTGCTGACTAAACTTGTTTCTTGCCTTTAGAGTAGCTGTCGGAGTCACCTAGTGCAG,9800 fluorescence intensity (a.u.)
17,CCCTTCGTTTCCCACCCACCACCTCTCTCCGGCGTGCTCGCGGAGTCACCTAGTGCAG,8060 fluorescence intensity (a.u.)
18,ATGCTATCGCTCTGTCTTGAGGACTCAGCGTCGCCGCTCCCGGAGTCACCTAGTGCAG,8230 fluorescence intensity (a.u.)
19,AGCAGTGTAGAGGAGGAGGAGGCGGCGGCGGCGGCGGCGGCGGAGTCACCTAGTGCAG,9880 fluorescence intensity (a.u.)
20,GTTGCAGGTTGATGGCTTGAGCACACTGTCCCCTCCACCGCGGAGTCACCTAGTGCAG,9330 fluorescence intensity (a.u.)
21,CCTGGCGTCGCCGGACCCCGTCCCGTACAAGCTGCTCGCGCGGAGTCACCTAGTGCAG,8100 fluorescence intensity (a.u.)

row,Sequence,binding signal
1,TACTATTTTTTCTCGTATTCATTATTTTGTGCATTATTTTCGGAGTCACCTAGTGCAG,17200 fluorescence intensity (a.u.)
2,AATCCCCGCCGCTAGTCTCGCCCACAGAAGATTCGAACACCGGAGTCACCTAGTGCAG,9200 fluorescence intensity (a.u.)
3,TCCAAGCTACGACAATGGCGGCCGCCACCTTCGCCTTTATCGGAGTCACCTAGTGCAG,8210 fluorescence intensity (a.u.)
4,AGCAATTCATTTATTTCTTTTTCCAAATTCCACCTCTCATCGGAGTCACCTAGTGCAG,9200 fluorescence intensity (a.u.)
5,GTTTTACTAGTTCTATATTGTACTTGCTGAGTATTCTTTACGGAGTCACCTAGTGCAG,9010 fluorescence intensity (a.u.)
6,AGTTTGTGATTGTAATGTTGTGCTACACTGTCCTTATCTTCGGAGTCACCTAGTGCAG,11500 fluorescence intensity (a.u.)
7,CGCCCGCCGCGCGCCAATCGCCGCTCCGCCGACCTCCGGCCGGAGTCACCTAGTGCAG,14000 fluorescence intensity (a.u.)
8,CATATTCGTTTCGTTTTTGTATTCGATAATATTTGATTGTCGGAGTCACCTAGTGCAG,8360 fluorescence intensity (a.u.)
9,GAGAACATTCAATATTTGCCATTTCGTTGAATTTTTTGTACGGAGTCACCTAGTGCAG,10300 fluorescence intensity (a.u.)
10,ATTCAGTGTTACATTACTCATAGAGACCATTTGAGCTTTCCGGAGTCACCTAGTGCAG,8270 fluorescence intensity (a.u.)
11,CGTGATGGTCATTTTTCTTTTGACATATAATCCTGTAGAACGGAGTCACCTAGTGCAG,8150 fluorescence intensity (a.u.)
12,CCCACCAGCTATATTTGCCAATCTTCCCCATCATAAATGACGGAGTCACCTAGTGCAG,8350 fluorescence intensity (a.u.)
13,TGGCCCTTACACTCTGTGCTGCCTCTGCCTGTACCAATCCCGGAGTCACCTAGTGCAG,10300 fluorescence intensity (a.u.)
14,GCATTGCTAGGTTGTGTCAGTTTCTCTTTGTATGAATTTTCGGAGTCACCTAGTGCAG,11200 fluorescence intensity (a.u.)
15,CATTTGACTTTTTCTATTAGTTAAAGTTATTTGGATTTGACGGAGTCACCTAGTGCAG,8300 fluorescence intensity (a.u.)
16,CACCGTCCGCAACCTCGCCCAACCACCTGAGATTAGAACGCGGAGTCACCTAGTGCAG,8130 fluorescence intensity (a.u.)
17,CCGCCCATTTGACTCTCGCCGTCGACGCCGCGTGCGAGTCCGGAGTCACCTAGTGCAG,8240 fluorescence intensity (a.u.)
18,AAGCCACACTTTACTAGCACATTGGTCCACACGTCATACTCGGAGTCACCTAGTGCAG,8380 fluorescence intensity (a.u.)
19,GGTCCTGAACTGTTATGCATGTTTCATTTGTTGCCCCTCGCGGAGTCACCTAGTGCAG,10400 fluorescence intensity (a.u.)
20,GTATTCCAGACGTATGAGGGTTGTCATGTATGACTTGTATCGGAGTCACCTAGTGCAG,8100 fluorescence intensity (a.u.)
21,GGCTGTGTTTGTGTTTAGTTCACACTGAAGTTTGGAAGTTCGGAGTCACCTAGTGCAG,8060 fluorescence intensity (a.u.)

# Random excerpt: 5 records from the list.
row,Sequence,binding signal
11,CGTGATGGTCATTTTTCTTTTGACATATAATCCTGTAGAACGGAGTCACCTAGTGCAG,8150 fluorescence intensity (a.u.)
6,AGTTTGTGATTGTAATGTTGTGCTACACTGTCCTTATCTTCGGAGTCACCTAGTGCAG,11500 fluorescence intensity (a.u.)
15,CATTTGACTTTTTCTATTAGTTAAAGTTATTTGGATTTGACGGAGTCACCTAGTGCAG,8300 fluorescence intensity (a.u.)
21,GGCTGTGTTTGTGTTTAGTTCACACTGAAGTTTGGAAGTTCGGAGTCACCTAGTGCAG,8060 fluorescence intensity (a.u.)
8,CATATTCGTTTCGTTTTTGTATTCGATAATATTTGATTGTCGGAGTCACCTAGTGCAG,8360 fluorescence intensity (a.u.)

# Next part:

row,Sequence,binding signal
1,TCAGGCACTACTGTTGACTACAGTTGGTTAATTTTGTTGACGGAGTCACCTAGTGCAG,9310 fluorescence intensity (a.u.)
2,GCAATTGAACTACATAACAATTGTTTCGTATGTCTCTAGTCGGAGTCACCTAGTGCAG,9150 fluorescence intensity (a.u.)
3,TGTTTTGGATTGGGAATGGGATGCATCATCAACAGCAGCACGGAGTCACCTAGTGCAG,9390 fluorescence intensity (a.u.)
4,TGTTATGCGCCGACTTGCAAAAATTCCACTGCTACGTAGCCGGAGTCACCTAGTGCAG,10200 fluorescence intensity (a.u.)
5,AGTTTGGCGGTAGGGAGGGCGGCGGCGGTGGATCCGAAGGCGGAGTCACCTAGTGCAG,8290 fluorescence intensity (a.u.)
6,AGGGTTTACGTGTGTGTTCATAGGGGTTAGTGTGCGAGCACGGAGTCACCTAGTGCAG,12100 fluorescence intensity (a.u.)
7,CTACTCATAATCCTCATCGAATCGCTTCTTTCTACTACAGCGGAGTCACCTAGTGCAG,9970 fluorescence intensity (a.u.)
8,GGTTTTGCATCTTCTTCGGCCCAACTCGTTCCTCCTCGACCGGAGTCACCTAGTGCAG,11500 fluorescence intensity (a.u.)
9,TCTCCCCGCATCGTCTCGCCACTGAAGCTGCCATGGCAGACGGAGTCACCTAGTGCAG,8240 fluorescence intensity (a.u.)
10,TCACACGGATGAAGATAGTTTGACCAAAACATCATCATCTCGGAGTCACCTAGTGCAG,8030 fluorescence intensity (a.u.)
11,TCTTGAGCTGCCTGTCCCGGAATCCGATTCCGAGCTCACTCGGAGTCACCTAGTGCAG,9810 fluorescence intensity (a.u.)
12,AACCTAGGTCATGAACACCGTGTTGACTGTTCATCCGAAACGGAGTCACCTAGTGCAG,10900 fluorescence intensity (a.u.)
13,ATCCTGCGATTCCACCATATCCAATCCTCGTATCTTGGGTCGGAGTCACCTAGTGCAG,8310 fluorescence intensity (a.u.)
14,AGGTGCGATGCGGAGGAAATGTGGGGTGGTAAAAAAGAAACGGAGTCACCTAGTGCAG,9420 fluorescence intensity (a.u.)
15,TCTATCCCTCTCTTACTCTCTCTCGTGTTCCTCTTCACTACGGAGTCACCTAGTGCAG,8780 fluorescence intensity (a.u.)
16,TGCATGTGGTTGGTCTATGTTTCTTTGAGCCGTGTTAGGACGGAGTCACCTAGTGCAG,9570 fluorescence intensity (a.u.)
17,TATTTACTTTATTTCCTCCATTTATGTCGTTTTAGTTTTGCGGAGTCACCTAGTGCAG,9590 fluorescence intensity (a.u.)
18,GGCGAGACGGGGAGAGGAGGGGAGGGTGACGGCGGCCGGACGGAGTCACCTAGTGCAG,8690 fluorescence intensity (a.u.)
19,TCTTCACGCTGAAACGCGCCGTATCGGTCAACACTTCAGTCGGAGTCACCTAGTGCAG,9040 fluorescence intensity (a.u.)
20,CATACTCCTAACAGTTATTAGTATTACGCTATATTTAACACGGAGTCACCTAGTGCAG,8280 fluorescence intensity (a.u.)
21,TTCGTCGGGCTTCTCGCCATTGGCGTACGTACTCTTGCTGCGGAGTCACCTAGTGCAG,9900 fluorescence intensity (a.u.)

row,Sequence,binding signal
1,CAGCTATACCTCTATATTTCCTGTGTTTTCTATTTTTCTCCGGAGTCACCTAGTGCAG,11500 fluorescence intensity (a.u.)
2,TTTCCCTGATCCTTTTCCTAACCCAGTGGCAGGCATCTTTCGGAGTCACCTAGTGCAG,9990 fluorescence intensity (a.u.)
3,CAACTACTTATCACACATTTACACGCATACACTTGGCCACCGGAGTCACCTAGTGCAG,9110 fluorescence intensity (a.u.)
4,AGTTGTGCTGTGTAGAATTACTGGATGATTTGTTTTGGTTCGGAGTCACCTAGTGCAG,8800 fluorescence intensity (a.u.)
5,TCATGGGCGAATCACGAGTATCAACATTATGTTTCTATATCGGAGTCACCTAGTGCAG,8780 fluorescence intensity (a.u.)
6,TTGTTTCTGAAATACTTTTTGTTCTTTCGTCGTGGATTGTCGGAGTCACCTAGTGCAG,10100 fluorescence intensity (a.u.)
7,AAGACATGGTTTCCTTTTTTTTCCTCATTTATTCACTTGCCGGAGTCACCTAGTGCAG,9630 fluorescence intensity (a.u.)
8,GGAGCCATATAGGTACCATGCTAGCAAAAACCAGGGACAACGGAGTCACCTAGTGCAG,8080 fluorescence intensity (a.u.)
9,ATGTAAATAGATGTAAGTTGCTTGTTTTTCCTTTTCTTTACGGAGTCACCTAGTGCAG,10600 fluorescence intensity (a.u.)
10,CGTTTTTGCTCGGGTGGGCTGGGTTAGGGACTCATCTGCACGGAGTCACCTAGTGCAG,23800 fluorescence intensity (a.u.)
11,ATGCATTGTTGCCATCCTCTTGCTTTACTTGCTCACAGTTCGGAGTCACCTAGTGCAG,10200 fluorescence intensity (a.u.)
12,ACTTTTGCCATTTTCCATTTACCATTCCAAATGGATCTAACGGAGTCACCTAGTGCAG,8540 fluorescence intensity (a.u.)
13,ATTCTCTTTTTCCGTGTTCAGCTGAATCGTCTCTGCTTTTCGGAGTCACCTAGTGCAG,9240 fluorescence intensity (a.u.)
14,GTTTCTCTTCGTCGACGTCTCCTGCAAGATCGTTTGGACCCGGAGTCACCTAGTGCAG,8960 fluorescence intensity (a.u.)
15,AATGTTTGTTTGGAATTCGGATGGTGTGCATGGTTTGCTTCGGAGTCACCTAGTGCAG,8830 fluorescence intensity (a.u.)
16,CACCAAAAACCTTTTTATACTGGATCAGATGTTTTTTCTTCGGAGTCACCTAGTGCAG,9610 fluorescence intensity (a.u.)
17,CTACCAAACCCACGCCGGCGCCGCATCGTCTTCGTCTCGTCGGAGTCACCTAGTGCAG,9740 fluorescence intensity (a.u.)
18,CGCCCACCGCCCGCGCCACCGCTCGCCACCTGGTCCGCCGCGGAGTCACCTAGTGCAG,8320 fluorescence intensity (a.u.)
19,CATTAGAAGTTAAAAAAAATTTCATGTGGCCTCCTTACACCGGAGTCACCTAGTGCAG,12500 fluorescence intensity (a.u.)
20,CGGGGAGGGAGTCGGGCTGGAGGAGGACGCGGGTGTGGACCGGAGTCACCTAGTGCAG,8730 fluorescence intensity (a.u.)
21,CATGGTTCATGTTTTTGGCGTGTTTGTGTTATGGTAGTGCCGGAGTCACCTAGTGCAG,8910 fluorescence intensity (a.u.)
